Experimental data as given in patent US20100210525A1 (University of California, published 2010).
These are yes or no findings as the source states them, for the method shown. Some entries that bind do so weakly or less than the wild type.

Protein sequences, listed by entry. Tags and fused reporters are not part of them. Residues count along the entry.
UniProt P26039, residues 309-405: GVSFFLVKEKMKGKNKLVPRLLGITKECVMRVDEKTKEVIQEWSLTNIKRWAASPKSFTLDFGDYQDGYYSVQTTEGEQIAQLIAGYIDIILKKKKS

Tests used:
[1] = target: T1, Talin F3 sub-domain, wild type (mouse, UniProt P26039 309-405, limits assumed); experiment: 1H-15N HSQC NMR titration of 15N talin F3 with the peptide, weighted shift map per residue [third panel]
T1 construct: domain: F3 sub-domain; U-15N labelled for NMR; also called Talin F3 wt; talin F3 domain

[2] = target: T1, Talin F3 sub-domain, wild type; experiment: 1H-15N HSQC NMR titration of 15N talin F3 with the peptide, weighted shift map per residue
[3] = target: T1, Talin F3 sub-domain, wild type; experiment: 1H-15N HSQC NMR titration of talin F3

- binding [1]: binds
- binding [2]: binds
- binding [3]: binds
Binder: WDTANNPLYDEA [MD peptide (membrane-distal β3 integrin tail peptide)]
